Structures can show the parent of a compound that is named as a salt. Some results are limits rather than exact numbers.

One may read the IC50 as the concentration at which inhibition is half-maximal.

For experiment [1], the system named is TNF production. Kind of experiment: Inhibition of LPS-stimulated TNF production in the human monocytic cell line THP-1 (ELISA). It is filed as cell-based. The settings on record: THP-1 cells. How it is done:
Cultures were maintained by the addition of fresh growth medium to a T-75 or T-150 flask of cells in suspension, or by pelleting the cells and re-suspending them in the appropriate volume of fresh medium. Maximum cell density was 1.0 x 10^6 cells per mL and cultures were seeded at a minimum density of 0.2 x 10^6 cells per ml.
THP-1 cells were plated into 24-well plates at a density of 1.0 x 10^6 cells per mL in 0.5 mL medium per well. […] For measurement of IL-1α and IL-1β production, THP-1 cells were incubated with 500 ng/mL or 50 ng/mL LPS and incubated for 16 hours. Levels of secreted cytokine were measured in cell supernatants as for TNF. Cell-associated species were measured in cell lysates which were prepared by repetitive freeze-thawing of cells. For in vitro screening, drugs at 10 µM concentration were co-administered with LPS. […] Drug effects on cell viability were assessed by the MTT assay. […] Water-soluble drugs were dissolved in aqueous solutions such as RPMI or deionized H20. The final concentration of DMSO in the incubation medium was at or below 0.01% and that of ethanol was at or below 0. 1%. The effect on cell viability was evaluated by the MTT assay.
A general note: An ELISA detects its analyte on a solid surface through an enzyme-linked reagent.

The subject of experiment [2] is TNF production. In words: Inhibition of LPS-stimulated TNF production in the mouse macrophage line RAW 264.7 (ELISA). It is filed as cell-based. To be noted: RAW264.7, read-out: IC50 value for the inhibition of LPS-stimulated TNF production. The protocol:
Cells were passaged at confluence by scraping and routinely plated at a density of 0.25 x 10^6 and 0.5 x 10^6 cells per T-75 and T-150, respectively.
Typically, RAW cells were plated at 0.25 x 10^6 cells per well of a 24-well plate, in 0.5 mL media per well on the day prior to experimentation. […] 1%. Drugs were co-administered with the stimulant, LPS. After a 6-hr incubation period with LPS ± drug (n = 3-4), the media from the experimental wells was harvested, the cells were removed by microcentrifugation, and the media assayed for TNF by ELISA. Drugs were screened at 10 µM for their ability to alter TNF production by cells stimulated with 1 µg/mL or 10 ng/mL LPS. Dexamethasone, an anti-inflammatory corticosteroid, served as the reference for inhibition of the LPS response.

As to `CN(C)C(=O)C(CCN1CCC(O)(c2ccc(Cl)cc2)CC1)(c1ccccc1)c1ccccc1` [Loperamide, 4-(p-chlorophenyl)-4-hydroxy-N,N-dimethyl-α, α-diphenyl-1-piperidine butyramide HCL], in the experiment with TNF production [1], the “IC50 value (50% of the maximal inhibition, as defined by effects at 10 µM)” value is listed as “within the same range”. Further, the IC50 in the experiment with TNF production [2] was less than 1000 nM.

Values taken from patent publication EP0937460A2, “Use of an antidiarrheal for the manufacture of a medicament for the treatment of inflammatory conditions” (Adolor Corporation, priority 1994, dated 1995).
